Laboratory results: PubChem BioAssay AID743121 (NCATS, 2013)

- Test: 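Knock-downs that sensitise breast cancer cells to camptothecin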 (primary screen)
- Cell system: MDA-MB-231 cells, a human breast cancer line
- Knock-down reagent: single siRNA against human genes, 20 nM siRNA (0.8 pmol per well)
- Time to read-out: 120 h (drug added 48 h after transfection, read 72 h later)
- Treatment: camptothecin 20 nM (about EC30) for 72 h; vehicle 0.1% DMSO in parallel plates
- Read-out: 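CellTiter-Glo ATP signal, scaled to control siRNA as percent viability; sensitisation given as log2 of untreated divided by camptothecin-treated viability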
- Scale: log2 vehicle/camptothecin viability: higher = stronger sensitisation to camptothecin
- Rule for the call: 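Each gene scored by redundant siRNA activity (RSA) over its individual siRNA ratios; a gene is called active at p < 0.001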
The whole screen tested about 26,000 reagents; below is a part drawn at random. 167 of all reagents (0.63%) count as active. 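Calls are per gene from RSA p-values that are not deposited; an individual active-marked siRNA can sensitise only weakly.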 Unmarked entries are inactive. Further read-outs or replicates are left out here.

gene symbol,PubChem SID,log2 vehicle/camptothecin viability
PPARGC1A (GeneID 10891),SID164414045,-0.275
PPARGC1A (GeneID 10891),SID164414047,0.136
PPARGC1A (GeneID 10891),SID164414048,0.154
RARRES1 (GeneID 5918),SID164384729,-0.0991
RARRES1 (GeneID 5918),SID164384730,-0.0558
RARRES1 (GeneID 5918),SID164384731,-0.00766
RARRES1 (GeneID 5918),SID164384734,-0.376
MKI67 (GeneID 4288),SID164375618,0.0288
MKI67 (GeneID 4288),SID164375623,0.223
MKI67 (GeneID 4288),SID164375624,-0.318
MKI67 (GeneID 4288),SID164375625,-0.316
BRPF1 (GeneID 7862),SID164395686,0.109
BRPF1 (GeneID 7862),SID164395687,-0.0104
BRPF1 (GeneID 7862),SID164395691,0.0565
BRPF1 (GeneID 7862),SID164395692,-0.103
EDIL3 (GeneID 10085),SID164408566,0.00929
EDIL3 (GeneID 10085),SID164408569,-0.105
EDIL3 (GeneID 10085),SID164408570,-0.407
EDIL3 (GeneID 10085),SID164408571,0.0392
STK17A (GeneID 9263),SID164402743,0.191
STK17A (GeneID 9263),SID164402744,-0.168
STK17A (GeneID 9263),SID164402746,0.0614
STK17A (GeneID 9263),SID164402748,0.0281
PPP4C (GeneID 5531),SID164382272,0.185
PPP4C (GeneID 5531),SID164382273,0.449
PPP4C (GeneID 5531),SID164382276,-0.065
PPP4C (GeneID 5531),SID164382277,0.0935
ITGAD (GeneID 3681),SID164371958,0.0571
ITGAD (GeneID 3681),SID164371960,-0.201
ITGAD (GeneID 3681),SID164371961,0.529
ITGAD (GeneID 3681),SID164371963,-0.207

Taken from above.
Result of EDIL3 (GeneID 10085) [SID164408569] under “log2 vehicle/camptothecin viability”: -0.105
Result for RARRES1 (GeneID 5918) [SID164384731] under “log2 vehicle/camptothecin viability”: -0.00766
For “log2 vehicle/camptothecin viability”, STK17A (GeneID 9263) [SID164402744] has -0.168
Under “log2 vehicle/camptothecin viability”, MKI67 (GeneID 4288) [SID164375623] is entered as 0.223
